{"sequences": {"note": "By UniProt entry, the sequences of proteins in these tests, tags left out. Residues count along the entry.", "UniProt P63158": "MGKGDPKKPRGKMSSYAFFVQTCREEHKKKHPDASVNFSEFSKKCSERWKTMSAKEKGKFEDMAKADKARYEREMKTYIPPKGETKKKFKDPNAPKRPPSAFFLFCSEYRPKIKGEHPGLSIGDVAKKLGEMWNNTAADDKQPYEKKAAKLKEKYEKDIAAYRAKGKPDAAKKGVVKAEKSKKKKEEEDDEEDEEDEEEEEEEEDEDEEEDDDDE", "UniProt Q9QUK6, residues 26-835": "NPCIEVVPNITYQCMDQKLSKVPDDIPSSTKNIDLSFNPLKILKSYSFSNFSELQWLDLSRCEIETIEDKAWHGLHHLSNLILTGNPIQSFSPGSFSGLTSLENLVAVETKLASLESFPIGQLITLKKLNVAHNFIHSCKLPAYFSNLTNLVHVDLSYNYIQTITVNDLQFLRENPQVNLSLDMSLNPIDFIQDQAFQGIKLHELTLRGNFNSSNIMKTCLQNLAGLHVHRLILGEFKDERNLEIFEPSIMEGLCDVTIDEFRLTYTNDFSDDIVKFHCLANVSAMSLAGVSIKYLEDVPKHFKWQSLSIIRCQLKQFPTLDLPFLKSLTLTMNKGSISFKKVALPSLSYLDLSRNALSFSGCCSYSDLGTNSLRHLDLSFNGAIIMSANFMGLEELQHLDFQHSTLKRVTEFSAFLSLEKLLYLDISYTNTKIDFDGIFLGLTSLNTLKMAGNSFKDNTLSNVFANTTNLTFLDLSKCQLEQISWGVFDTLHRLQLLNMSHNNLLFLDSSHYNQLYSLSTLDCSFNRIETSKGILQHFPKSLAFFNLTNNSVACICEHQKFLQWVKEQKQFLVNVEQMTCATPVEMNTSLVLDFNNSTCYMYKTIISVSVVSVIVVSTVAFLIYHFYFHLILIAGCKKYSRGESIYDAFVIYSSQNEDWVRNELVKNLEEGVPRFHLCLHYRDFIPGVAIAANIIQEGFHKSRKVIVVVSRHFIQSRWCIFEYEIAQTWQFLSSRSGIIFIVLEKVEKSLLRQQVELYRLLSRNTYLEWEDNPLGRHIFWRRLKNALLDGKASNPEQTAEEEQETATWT"}, "source": "paper PMC11907943", "biological_target": "HMGB1 (UniProt P63158)", "assay": "co-IP; cell lysates (Pierce IP lysis buffer with protease inhibitors) incubated overnight at 4 °C with anti-HMGB1 or anti-TLR4 antibody or control IgG, Protein A/G PLUS-Agarose, beads washed three times with PBS; immunoblot with anti-HMGB1 and anti-TLR4; cells not named", "note": "No constants are given. Whether binding was seen depends on the method and setting. Binding seen in cells or lysates may run through a third protein. Some binding calls cover weakened binding; strength is not graded here.", "data": [{"substance": "TLR4 (from UniProt Q9QUK6 26-835) (receptor)", "values": [{"measurement": "binding", "result": "binds"}]}]}
